Some results were stated once for a whole list of compounds, not compound by compound.
System: hypercholesterolemic patients
Experiment: Phase 2b double-blind trial: percent changes from baseline to week 12 in lipids and CRP
Type: in vivo, human
Details: phase 2b trial, statin-tolerant and statin-intolerant patients; maintained throughout the study
Method: LDL-C was calculated using the Friedewald equation.
The primary endpoint was the percent change from baseline to week 12 in calculated LDL-C in patients treated with ETC-1002 monotherapy versus those treated with EZE alone. Secondary endpoints included the dose-response relationship between ETC-1002 and the percent change in LDL-C from baseline to week 12, the percent change in LDL-C from baseline to week 12 in patients treated with ETC-1002 plus EZE versus those treated with EZE alone, and the percent change from baseline to week 12 for all treatment groups in LDL particle number, apolipoprotein B, total cholesterol, non-high-density lipoprotein cholesterol (non-HDL-C), HDL-C, HDL particle number, apolipoprotein A-I, triglycerides, very-low-density lipoprotein (VLDL) particle number, and high-sensitivity C-reactive protein (CRP). Lipoprotein particle number was measured using nuclear magnetic resonance […].
An analysis of covariance was used to compare each ETC-1002 treatment group with EZE monotherapy for each of the efficacy endpoints. The primary model included the effects of treatment and statin intolerance and the baseline value as a covariate. […] When LDL-C could not be calculated (i.e., triglycerides >400 mg/dL), beta-quantification measurements were used to determine LDL-C values. […]

## O=C1[C@H](CC[C@H](O)c2ccc(F)cc2)[C@@H](c2ccc(O)cc2)N1c1ccc(F)cc1 [EZE, (3R,4S)-1-(4-fluorophenyl)-3-[(3S)-3-(4-fluorophenyl)-3-hydroxypropyl]-4-(4-hydroxyphenyl)azetidin-2-one, reference compound]
  Time of treatment within which decreases in LDL-C occurred: ≤ 2 weeks

## CC(C)(CCCCCC(O)CCCCCC(C)(C)C(=O)O)C(=O)O [ETC-1002, 8-hydroxy-2,2,14,14 tetramethylpentadecanedioic acid]
  Time of treatment within which decreases in LDL-C occurred: ≤ 2 weeks

Source: patent US11744816B2, “Fixed dose combinations and formulations comprising ETC1002 and ezetimibe and methods of treating or reducing the risk of cardiovascular disease” (Esperion Therapeutics, Inc., priority 2015, dated 2023)
